{"source": "PubChem BioAssay AID743121 (NCATS, 2013)", "assay": "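Knock-downs that sensitise breast cancer cells to camptothecin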 (primary screen)", "system": "MDA-MB-231 cells, a human breast cancer line", "knock-down reagent": "single siRNA against human genes, 20 nM siRNA (0.8 pmol per well)", "timing": "120 h (drug added 48 h after transfection, read 72 h later)", "challenge": "camptothecin 20 nM (about EC30) for 72 h; vehicle 0.1% DMSO in parallel plates", "read-out": "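Cell viability by ATP luminescence (CellTiter-Glo) as % of non-targeting siRNA wells, and the log2 ratio of viability without drug over viability with camptothecin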", "direction": "log2 vehicle/camptothecin viability: higher = stronger sensitisation to camptothecin; viability with camptothecin: higher = more viable cells", "units": "viability with camptothecin in % of control", "hit rule": "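Active genes have an RSA gene-level p-value below 0.001, computed from the ratios of their separate siRNAs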", "note": "Here is one part, drawn at random, of about 26,000 reagents tested. In the full data, 167 (0.63%) are marked active. 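Calls are per gene from RSA p-values that are not deposited; an individual active-marked siRNA can sensitise only weakly.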 The numbers tell different reagents against one gene apart. Not all columns of the deposit are shown. Reagent sequences are not shown."}
The first 2 entries, to show the layout:
{"Gene": "MRC2 (GeneID 9902)", "reagent no.": 1, "log2 vehicle/camptothecin viability": -0.301, "viability with camptothecin": 62.8, "outcome": "inactive"}
{"Gene": "MRC2 (GeneID 9902)", "reagent no.": 2, "log2 vehicle/camptothecin viability": -0.215, "viability with camptothecin": 92.1, "outcome": "inactive"}

The listing, from the first entry:
{"Gene": "MRC2 (GeneID 9902)", "reagent no.": 1, "log2 vehicle/camptothecin viability": -0.301, "viability with camptothecin": 62.8, "outcome": "inactive"}
{"Gene": "MRC2 (GeneID 9902)", "reagent no.": 2, "log2 vehicle/camptothecin viability": -0.215, "viability with camptothecin": 92.1, "outcome": "inactive"}
{"Gene": "MRC2 (GeneID 9902)", "reagent no.": 3, "log2 vehicle/camptothecin viability": -0.155, "viability with camptothecin": 46, "outcome": "inactive"}
{"Gene": "CPOX (GeneID 1371)", "reagent no.": 1, "log2 vehicle/camptothecin viability": -0.333, "viability with camptothecin": 83, "outcome": "inactive"}
{"Gene": "CPOX (GeneID 1371)", "reagent no.": 2, "log2 vehicle/camptothecin viability": -0.263, "viability with camptothecin": 119, "outcome": "inactive"}
{"Gene": "CPOX (GeneID 1371)", "reagent no.": 3, "log2 vehicle/camptothecin viability": -0.291, "viability with camptothecin": 124, "outcome": "inactive"}
{"Gene": "CPOX (GeneID 1371)", "reagent no.": 4, "log2 vehicle/camptothecin viability": -0.271, "viability with camptothecin": 82.2, "outcome": "inactive"}
{"Gene": "PMAIP1 (GeneID 5366)", "reagent no.": 1, "log2 vehicle/camptothecin viability": -0.502, "viability with camptothecin": 82.8, "outcome": "inactive"}
{"Gene": "PMAIP1 (GeneID 5366)", "reagent no.": 2, "log2 vehicle/camptothecin viability": -0.832, "viability with camptothecin": 75.8, "outcome": "inactive"}
{"Gene": "PMAIP1 (GeneID 5366)", "reagent no.": 3, "log2 vehicle/camptothecin viability": -0.147, "viability with camptothecin": 117, "outcome": "inactive"}
{"Gene": "PMAIP1 (GeneID 5366)", "reagent no.": 4, "log2 vehicle/camptothecin viability": -0.532, "viability with camptothecin": 62.5, "outcome": "inactive"}
{"Gene": "ACTR2 (GeneID 10097)", "reagent no.": 1, "log2 vehicle/camptothecin viability": -0.211, "viability with camptothecin": 74.7, "outcome": "inactive"}
{"Gene": "ACTR2 (GeneID 10097)", "reagent no.": 2, "log2 vehicle/camptothecin viability": -0.0223, "viability with camptothecin": 63.4, "outcome": "inactive"}
{"Gene": "ACTR2 (GeneID 10097)", "reagent no.": 3, "log2 vehicle/camptothecin viability": -0.173, "viability with camptothecin": 46.3, "outcome": "inactive"}
{"Gene": "ACTR2 (GeneID 10097)", "reagent no.": 4, "log2 vehicle/camptothecin viability": -0.679, "viability with camptothecin": 85.7, "outcome": "inactive"}
